Experimental data: paper PMC11686864
No constants are given. Whether binding was seen depends on the method and setting. In cells and extracts the contact can be indirect. Some results given as binding are weak or reduced against the parent protein; the word gives no strength.

Target: T1, Zinc-finger E-box-binding homeobox 1 (ZEB1) (human (endogenous in OPM2)) (UniProt P37275)
T1 sequence: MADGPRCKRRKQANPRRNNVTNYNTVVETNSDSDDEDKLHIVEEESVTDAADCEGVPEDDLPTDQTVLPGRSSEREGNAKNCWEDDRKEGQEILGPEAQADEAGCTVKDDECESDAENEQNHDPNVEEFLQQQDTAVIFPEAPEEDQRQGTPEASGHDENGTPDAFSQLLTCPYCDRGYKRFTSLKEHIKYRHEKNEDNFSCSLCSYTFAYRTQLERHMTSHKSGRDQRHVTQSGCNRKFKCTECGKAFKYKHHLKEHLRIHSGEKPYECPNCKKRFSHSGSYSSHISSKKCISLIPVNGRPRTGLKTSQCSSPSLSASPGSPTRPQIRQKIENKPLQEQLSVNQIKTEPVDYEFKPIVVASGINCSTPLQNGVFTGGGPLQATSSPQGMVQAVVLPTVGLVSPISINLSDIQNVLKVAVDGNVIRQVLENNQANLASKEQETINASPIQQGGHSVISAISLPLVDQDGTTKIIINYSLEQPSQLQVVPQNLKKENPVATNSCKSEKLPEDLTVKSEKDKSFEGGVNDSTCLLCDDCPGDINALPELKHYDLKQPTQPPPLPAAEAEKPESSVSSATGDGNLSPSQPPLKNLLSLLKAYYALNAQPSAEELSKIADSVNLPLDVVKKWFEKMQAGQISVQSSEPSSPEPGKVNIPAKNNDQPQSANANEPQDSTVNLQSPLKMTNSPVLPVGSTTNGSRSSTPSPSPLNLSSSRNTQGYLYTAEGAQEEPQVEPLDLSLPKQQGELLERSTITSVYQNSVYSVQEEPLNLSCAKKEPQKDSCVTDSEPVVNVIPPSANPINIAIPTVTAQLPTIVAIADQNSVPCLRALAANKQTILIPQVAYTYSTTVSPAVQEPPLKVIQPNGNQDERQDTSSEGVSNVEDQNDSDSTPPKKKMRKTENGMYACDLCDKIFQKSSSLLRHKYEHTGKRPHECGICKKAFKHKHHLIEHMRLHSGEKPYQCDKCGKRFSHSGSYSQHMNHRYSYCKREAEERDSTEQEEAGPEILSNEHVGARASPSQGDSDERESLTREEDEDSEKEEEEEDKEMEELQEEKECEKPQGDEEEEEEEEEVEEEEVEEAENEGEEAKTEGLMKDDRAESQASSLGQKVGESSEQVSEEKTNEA
Assay: co-IP; OPM2 lysate (50 mM TRIS-HCl pH 7.4, 150 mM NaCl, 20 mM EDTA, 0.5% NP-40, 1 mM DTT) incubated with 1 ug non-relevant, anti-USP39 or anti-ZEB1 antibody and protein G Sepharose at 4°C overnight; beads washed five times; immunoblot with anti-USP39 or anti-ZEB1

B1: Ubiquitin-specific peptidase 39 (USP39) (enzyme, UniProt Q53GS9-1 1-565)
chain: MSGRSKRESRGSTRGKRESESRGSSGRVKRERDREREPEAASSRGSPVRVKREFEPASAREAPASVVPFVRVKREREVDEDSEPEREVRAKNGRVDSEDRRSRHCPYLDTINRSVLDFDFEKLCSISLSHINAYACLVCGKYFQGRGLKSHAYIHSVQFSHHVFLNLHTLKFYCLPDNYEIIDSSLEDITYVLKPTFTKQQIANLDKQAKLSRAYDGTTYLPGIVGLNNIKANDYANAVLQALSNVPPLRNYFLEEDNYKNIKRPPGDIMFLLVQRFGELMRKLWNPRNFKAHVSPHEMLQAVVLCSKKTFQITKQGDGVDFLSWFLNALHSALGGTKKKKKTIVTDVFQGSMRIFTKKLPHPDLPAEEKEQLLHNDEYQETMVESTFMYLTLDLPTAPLYKDEKEQLIIPQVPLFNILAKFNGITEKEYKTYKENFLKRFQLTKLPPYLIFCIKRFTKNNFFVEKNPTIVNFPITNVDLREYLSEEVQAVHKNTTYDLIANIVHDGKPSEGSYRIHVLHHGTGKWYELQDLQVTDILPQMITLSEAYIQIWKRRDNDETNQQGA
binding: binds
